Some of the results follow. Most values lie at the level of the controls, where differences are scatter.

Protein sequences, listed by entry. Tags and fused reporters are not part of them. Lines headed by an entry give the natural chain unless they say otherwise; changes in a name come on top.
UniProt Q5SXM8: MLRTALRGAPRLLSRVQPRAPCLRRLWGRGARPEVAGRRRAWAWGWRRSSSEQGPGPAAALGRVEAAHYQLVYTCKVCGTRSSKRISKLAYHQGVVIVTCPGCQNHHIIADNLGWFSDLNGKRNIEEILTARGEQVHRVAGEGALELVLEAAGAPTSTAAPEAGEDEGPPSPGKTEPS
UniProt Q5TG53: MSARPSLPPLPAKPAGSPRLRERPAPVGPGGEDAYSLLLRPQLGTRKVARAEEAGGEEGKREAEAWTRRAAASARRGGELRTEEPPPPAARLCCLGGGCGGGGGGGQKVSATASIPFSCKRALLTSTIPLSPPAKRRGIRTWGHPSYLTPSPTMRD
UniProt Q5TEU4: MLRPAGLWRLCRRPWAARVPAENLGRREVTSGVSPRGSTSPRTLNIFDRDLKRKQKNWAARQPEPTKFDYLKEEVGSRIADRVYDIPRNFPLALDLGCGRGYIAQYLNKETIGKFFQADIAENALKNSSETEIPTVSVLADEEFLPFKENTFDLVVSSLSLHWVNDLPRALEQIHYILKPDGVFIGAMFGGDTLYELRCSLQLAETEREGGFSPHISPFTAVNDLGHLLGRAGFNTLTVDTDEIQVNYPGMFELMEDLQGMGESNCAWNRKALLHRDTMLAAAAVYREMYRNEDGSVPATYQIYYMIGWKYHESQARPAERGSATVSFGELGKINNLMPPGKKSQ
UniProt Q53HC9: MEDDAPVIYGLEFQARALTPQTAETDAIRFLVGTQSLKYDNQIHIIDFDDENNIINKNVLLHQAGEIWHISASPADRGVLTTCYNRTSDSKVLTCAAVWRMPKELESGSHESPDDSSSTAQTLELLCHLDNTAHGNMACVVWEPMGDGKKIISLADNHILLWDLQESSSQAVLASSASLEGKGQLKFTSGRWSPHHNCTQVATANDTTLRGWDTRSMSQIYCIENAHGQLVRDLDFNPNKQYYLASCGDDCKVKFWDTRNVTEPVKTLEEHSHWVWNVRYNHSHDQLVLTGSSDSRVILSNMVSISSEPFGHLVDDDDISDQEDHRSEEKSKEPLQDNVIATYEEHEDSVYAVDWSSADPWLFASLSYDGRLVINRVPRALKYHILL
UniProt Q5JSZ5: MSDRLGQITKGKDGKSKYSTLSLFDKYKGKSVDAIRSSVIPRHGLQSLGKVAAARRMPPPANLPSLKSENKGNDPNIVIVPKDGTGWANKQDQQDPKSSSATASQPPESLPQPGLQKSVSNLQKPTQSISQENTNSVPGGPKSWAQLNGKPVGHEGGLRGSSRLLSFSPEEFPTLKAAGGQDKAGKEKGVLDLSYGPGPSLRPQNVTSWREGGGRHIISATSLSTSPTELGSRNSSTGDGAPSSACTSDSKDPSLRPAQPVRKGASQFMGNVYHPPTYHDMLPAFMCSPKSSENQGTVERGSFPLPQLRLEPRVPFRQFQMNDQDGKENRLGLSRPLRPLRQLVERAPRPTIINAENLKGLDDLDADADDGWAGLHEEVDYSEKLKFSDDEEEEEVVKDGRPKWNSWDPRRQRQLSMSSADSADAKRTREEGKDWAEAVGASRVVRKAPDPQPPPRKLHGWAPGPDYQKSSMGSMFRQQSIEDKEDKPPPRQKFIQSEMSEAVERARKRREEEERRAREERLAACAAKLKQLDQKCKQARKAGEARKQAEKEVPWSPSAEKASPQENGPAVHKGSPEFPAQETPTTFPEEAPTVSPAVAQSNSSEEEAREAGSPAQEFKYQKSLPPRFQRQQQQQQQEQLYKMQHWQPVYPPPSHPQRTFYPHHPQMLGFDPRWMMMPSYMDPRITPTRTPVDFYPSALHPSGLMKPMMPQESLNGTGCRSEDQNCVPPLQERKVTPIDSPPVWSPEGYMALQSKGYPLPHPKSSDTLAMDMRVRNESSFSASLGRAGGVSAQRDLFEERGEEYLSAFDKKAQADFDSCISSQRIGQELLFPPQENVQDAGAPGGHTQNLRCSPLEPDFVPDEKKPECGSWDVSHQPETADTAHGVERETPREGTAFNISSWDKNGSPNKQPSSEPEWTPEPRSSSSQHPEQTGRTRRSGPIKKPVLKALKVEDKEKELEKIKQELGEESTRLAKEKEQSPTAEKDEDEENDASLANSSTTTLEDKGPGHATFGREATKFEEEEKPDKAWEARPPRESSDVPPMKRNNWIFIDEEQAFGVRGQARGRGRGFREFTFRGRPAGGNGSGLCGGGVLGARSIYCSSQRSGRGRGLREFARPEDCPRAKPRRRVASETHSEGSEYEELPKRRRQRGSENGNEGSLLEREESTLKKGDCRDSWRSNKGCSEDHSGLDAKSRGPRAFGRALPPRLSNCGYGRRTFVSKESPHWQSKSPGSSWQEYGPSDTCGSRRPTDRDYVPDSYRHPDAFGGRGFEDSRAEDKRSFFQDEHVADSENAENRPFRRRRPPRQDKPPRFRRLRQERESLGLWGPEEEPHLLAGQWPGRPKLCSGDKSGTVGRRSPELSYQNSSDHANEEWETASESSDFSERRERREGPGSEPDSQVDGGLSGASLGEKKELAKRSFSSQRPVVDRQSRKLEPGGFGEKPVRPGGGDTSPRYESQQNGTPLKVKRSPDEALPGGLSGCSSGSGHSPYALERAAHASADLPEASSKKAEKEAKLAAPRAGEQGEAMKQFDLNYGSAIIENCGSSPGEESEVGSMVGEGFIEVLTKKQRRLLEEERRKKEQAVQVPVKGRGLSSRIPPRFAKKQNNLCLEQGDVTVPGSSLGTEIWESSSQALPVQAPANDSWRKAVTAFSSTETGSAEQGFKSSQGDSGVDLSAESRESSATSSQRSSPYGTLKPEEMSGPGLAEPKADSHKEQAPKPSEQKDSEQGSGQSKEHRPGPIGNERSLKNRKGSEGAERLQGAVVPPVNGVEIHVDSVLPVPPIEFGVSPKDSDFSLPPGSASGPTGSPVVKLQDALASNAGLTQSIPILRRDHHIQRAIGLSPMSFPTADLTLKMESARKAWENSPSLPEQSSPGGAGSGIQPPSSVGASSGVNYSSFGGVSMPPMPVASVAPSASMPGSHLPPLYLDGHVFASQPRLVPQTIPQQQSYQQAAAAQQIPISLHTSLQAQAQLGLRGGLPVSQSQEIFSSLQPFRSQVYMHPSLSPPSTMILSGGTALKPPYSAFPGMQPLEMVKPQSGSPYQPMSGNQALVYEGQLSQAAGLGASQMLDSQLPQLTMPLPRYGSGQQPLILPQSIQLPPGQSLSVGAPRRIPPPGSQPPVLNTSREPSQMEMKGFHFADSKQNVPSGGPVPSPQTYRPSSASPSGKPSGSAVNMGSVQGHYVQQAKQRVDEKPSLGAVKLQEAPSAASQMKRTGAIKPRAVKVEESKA

Compound in this assay: Cc1nc(Nc2ncc(C(=O)Nc3c(C)cccc3Cl)s2)cc(N2CCN(CCO)CC2)n1 [dasatinib]
Kind of assay: log2 fold change of tryptic peptide abundance, ligand vs vehicle (limited proteolysis) (log2 ratio); higher = more trypsin-susceptible (destabilized). Particulars: ligand concentration: 5 uM; sample: K562 cleared lysate.
Take “DNLZ (peptide sequence: VEAAHYQLVYTCK, peptide start residue: 64) (UniProt Q5SXM8)”: the log2 fold change is -0.0382.
For “UniProt Q5TG53 (peptide sequence: AEEAGGEEGKR, peptide start residue: 51)” the value was -0.152; for “UniProt Q5TEU4 (peptide sequence: GSATVSFGELGK, peptide start residue: 322)”, 0.14.
Then “UniProt Q53HC9 (peptide sequence: FLVGTQSLK, peptide start residue: 30)”, with -0.164; and “UniProt Q5JSZ5 (peptide sequence: GYPLPHPK, peptide start residue: 756)”, with -0.194.
